These are yes or no findings as the source states them, for the method shown. Binding seen in cells or lysates may run through a third protein. These calls come from enrichment with a bait or labelling near it, and not all partners need be listed.

The assay addresses Estrogen receptor alpha (ESR1) (UniProt P03372). The assay is described as follows: affinity purification with mass spectrometry; ESR1 immunoprecipitation compared with vector IP and ESR1 with MG132 treatment, MCF7 ESR1 overexpression model; mass spectrometry of the precipitates.

Consider “SQSTM1 (p62) (from UniProt Q13501 1-440)”, for which the binding result is listed as “binds”.
